# Experimental data as given in the supplement of paper PMC8728848.
# The list shows a part of the results.
# B1: PX9961W-pdi-543-27-543 (Parabacteroides distasonis) (protein)
# chain: EGNATTTSYFLNDQQAIDAIDGLYERFHQEGCYGRELFWEQGAACDIVWGRTRGYNSLATLAYTGDESPLRDVFSRMYSTMSRANWIIQELVKKEKGTTLTAVEKRSLGEAYFSRGWAHYLIAYRYGTDKQGVPFVRYEDFPDDYDNSIPPQQATVMDNYKLIIEDMDKAIAYLPIFESYDADNRGRAHQAAAVAFKAKTYAYWATWDATQWNNVIEMVNQLENNYNRDLAPTFAELFSSDLKDYWNAEYLWTIPSIGGALPGGTEFPGIILENKGWGKYNGWGQMKPSYDIYEEMAKDGKGNDRLVRSILEYNQEFPFFGETRKFWSTSDLEAGFMINKYMDAFKYSDPVGEGAVSANGDWPTVRVNFPIIRFAEMLLFRAEAYLMTGQADKATADINRIRLRSNLTPLTGTATMKDLYHERRCELAFEFTDHLFDLKRWNRSSNADIKTLADKELNAHPRIRRYEDRANPESAFTIIGYEDYTNKNAYQAHMMVFPYPSEEITKSNGQLKQNEGY
# Tests used:
# Assay in all cases: glycan array binding signal (z-score within array); higher = stronger binding
# Conditions in all cases: glycan notation: IUPAC condensed, linker removed
# [1] = target: Gal(b1-4)GlcNAc(b1-3)Gal(b1-4)GlcNAc(b1-2)[Gal(b1-4)GlcNAc(b1-3)Gal(b1-4)GlcNAc(b1-6)]Man(a1-6)[Gal(b1-4)GlcNAc(b1-3)Gal(b1-4)GlcNAc(b1-2)Man(a1-3)]Man(b1-4)GlcNAc(b1-4)GlcNAc
# In short: (§1)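 The Consortium for Functional Glycomics database supplied 3228 glycan arrays, of which those lacking an available protein sequence were dropped. The binding signal, a within-array Z-score, was averaged across arrays of the same protein sequence and across linkers. Negative scores can be read as non-binding.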
# [2] = target: Gal(b1-4)GlcNAc(b1-3)Gal(b1-4)GlcNAc(b1-2)[Gal(b1-4)GlcNAc(b1-3)Gal(b1-4)GlcNAc(b1-6)]Man(a1-6)[Gal(b1-4)GlcNAc(b1-3)Gal(b1-4)GlcNAc(b1-2)Man(a1-3)]Man(b1-4)GlcNAc(b1-4)[Fuc(a1-6)]GlcNAc
# In short: as §1
# [3] = target: Gal(b1-4)GlcNAc(b1-3)Gal(b1-4)GlcNAc(b1-3)Gal(b1-4)GlcNAc
# In short: as §1
# [4] = target: Gal(b1-4)GlcNAc(b1-3)Gal(b1-4)GlcNAc(b1-3)Gal(b1-4)GlcNAc(b1-2)Man(a1-3)[Gal(b1-4)GlcNAc(b1-3)Gal(b1-4)GlcNAc(b1-3)Gal(b1-4)GlcNAc(b1-2)Man(a1-6)]Man(b1-4)GlcNAc(b1-4)GlcNAc
# In short: as §1
# [5] = target: Gal(b1-4)GlcNAc(b1-3)Gal(b1-4)GlcNAc(b1-3)Gal(b1-4)GlcNAc(b1-2)Man(a1-3)[Gal(b1-4)GlcNAc(b1-3)Gal(b1-4)GlcNAc(b1-3)Gal(b1-4)GlcNAc(b1-2)Man(a1-6)]Man(b1-4)GlcNAc(b1-4)[Fuc(a1-6)]GlcNAc
# In short: as §1
# [6] = target: Gal(b1-4)GlcNAc(b1-3)Gal(b1-4)GlcNAc(b1-3)Gal(b1-4)GlcNAc(b1-2)[Gal(b1-4)GlcNAc(b1-3)Gal(b1-4)GlcNAc(b1-3)Gal(b1-4)GlcNAc(b1-6)]Man(a1-6)[Gal(b1-4)GlcNAc(b1-3)Gal(b1-4)GlcNAc(b1-3)Gal(b1-4)GlcNAc(b1-2)Man(a1-3)]Man(b1-4)GlcNAc(b1-4)[Fuc(a1-6)]GlcNAc
# In short: as §1
# [7] = target: Gal(b1-4)GlcNAc(b1-3)Gal(b1-4)GlcNAc(b1-3)Gal(b1-4)GlcNAc(b1-3)Gal(b1-4)GlcNAc(b1-2)Man(a1-3)[Gal(b1-4)GlcNAc(b1-3)Gal(b1-4)GlcNAc(b1-3)Gal(b1-4)GlcNAc(b1-3)Gal(b1-4)GlcNAc(b1-2)Man(a1-6)]Man(b1-4)GlcNAc(b1-4)GlcNAc
# In short: as §1
# [8] = target: Gal(b1-4)GlcNAc(b1-3)Gal(b1-4)GlcNAc(b1-3)Gal(b1-4)GlcNAc(b1-3)Gal(b1-4)GlcNAc(b1-2)Man(a1-3)[Gal(b1-4)GlcNAc(b1-3)Gal(b1-4)GlcNAc(b1-3)Gal(b1-4)GlcNAc(b1-3)Gal(b1-4)GlcNAc(b1-2)Man(a1-6)]Man(b1-4)GlcNAc(b1-4)[Fuc(a1-6)]GlcNAc
# In short: as §1
# [9] = target: Gal(b1-4)GlcNAc(b1-3)Gal(b1-4)GlcNAc(b1-3)Gal(b1-4)GlcNAc(b1-3)Gal(b1-4)GlcNAc(b1-2)[Gal(b1-4)GlcNAc(b1-3)Gal(b1-4)GlcNAc(b1-3)Gal(b1-4)GlcNAc(b1-3)Gal(b1-4)GlcNAc(b1-6)]Man(a1-6)[Gal(b1-4)GlcNAc(b1-3)Gal(b1-4)GlcNAc(b1-3)Gal(b1-4)GlcNAc(b1-3)Gal(b1-4)GlcNAc(b1-2)Man(a1-3)]Man(b1-4)GlcNAc(b1-4)[Fuc(a1-6)]GlcNAc
# In short: as §1
# [10] = target: Gal(b1-4)GlcNAc(b1-3)Gal(b1-4)GlcNAc(b1-3)Gal(b1-4)GlcNAc(b1-3)Gal(b1-4)GlcNAc(b1-3)Gal(b1-4)GlcNAc(b1-2)Man(a1-3)[Gal(b1-4)GlcNAc(b1-3)Gal(b1-4)GlcNAc(b1-3)Gal(b1-4)GlcNAc(b1-3)Gal(b1-4)GlcNAc(b1-3)Gal(b1-4)GlcNAc(b1-2)Man(a1-6)]Man(b1-4)GlcNAc(b1-4)GlcNAc
# In short: as §1
# [11] = target: Gal(b1-4)GlcNAc(b1-3)Gal(b1-4)GlcNAc(b1-3)Gal(b1-4)GlcNAc(b1-3)Gal(b1-4)GlcNAc(b1-3)Gal(b1-4)GlcNAc(b1-2)Man(a1-3)[Gal(b1-4)GlcNAc(b1-3)Gal(b1-4)GlcNAc(b1-3)Gal(b1-4)GlcNAc(b1-3)Gal(b1-4)GlcNAc(b1-3)Gal(b1-4)GlcNAc(b1-2)Man(a1-6)]Man(b1-4)GlcNAc(b1-4)[Fuc(a1-6)]GlcNAc
# In short: as §1
# [12] = target: Gal(b1-4)GlcNAc(b1-3)Gal(b1-4)GlcNAc(b1-3)Gal(b1-4)GlcNAc(b1-3)Gal(b1-4)GlcNAc(b1-3)Gal(b1-4)GlcNAc(b1-2)[Gal(b1-4)GlcNAc(b1-3)Gal(b1-4)GlcNAc(b1-3)Gal(b1-4)GlcNAc(b1-3)Gal(b1-4)GlcNAc(b1-3)Gal(b1-4)GlcNAc(b1-6)]Man(a1-6)[Gal(b1-4)GlcNAc(b1-3)Gal(b1-4)GlcNAc(b1-3)Gal(b1-4)GlcNAc(b1-3)Gal(b1-4)GlcNAc(b1-3)Gal(b1-4)GlcNAc(b1-2)Man(a1-3)]Man(b1-4)GlcNAc(b1-4)[Fuc(a1-6)]GlcNAc
# In short: as §1
# [13] = target: Gal(b1-4)GlcNAc(b1-3)Gal(b1-4)GlcNAc(b1-3)Gal(b1-4)GlcNAc(b1-3)Gal(b1-4)GlcNAc(b1-3)Gal(b1-4)GlcNAc(b1-3)Gal(b1-4)GlcNAc(b1-2)Man(a1-3)[Gal(b1-4)GlcNAc(b1-3)Gal(b1-4)GlcNAc(b1-3)Gal(b1-4)GlcNAc(b1-3)Gal(b1-4)GlcNAc(b1-3)Gal(b1-4)GlcNAc(b1-3)Gal(b1-4)GlcNAc(b1-2)Man(a1-6)]Man(b1-4)GlcNAc(b1-4)GlcNAc
# In short: as §1
# [14] = target: Gal(b1-4)GlcNAc(b1-3)Gal(b1-4)GlcNAc(b1-3)GalNAc
# In short: as §1
# [15] = target: Gal(b1-4)GlcNAc(b1-3)Gal(b1-4)GlcNAc(b1-3)[Gal(b1-4)GlcNAc(b1-3)Gal(b1-4)GlcNAc(b1-6)]GalNAc
# In short: as §1
# [16] = target: Gal(b1-4)GlcNAc(b1-3)Gal(b1-4)GlcNAc(b1-6)[Gal(b1-3)]GalNAc
# In short: as §1
# [17] = target: Gal(b1-4)GlcNAc(b1-3)Gal(b1-4)[Fuc(a1-3)]GlcNAc(b1-3)Gal(b1-4)[Fuc(a1-3)]GlcNAc
# In short: as §1
# [18] = target: Gal(b1-4)GlcNAc(b1-3)GalNAc
# In short: as §1
# [19] = target: Gal(b1-4)GlcNAc(b1-3)[Fuc(a1-3)GlcNAc(b1-6)]Gal(b1-4)Glc
# In short: as §1
# [20] = target: Gal(b1-4)GlcNAc(b1-3)[Gal(b1-4)GlcNAc(b1-6)]Gal(b1-4)GlcNAc
# In short: as §1
# [21] = target: Gal(b1-4)GlcNAc(b1-3)[GlcNAc(b1-6)]Gal(b1-4)GlcNAc
# In short: as §1
# [22] = target: Gal(b1-4)GlcNAc(b1-6)Gal(b1-4)GlcNAc
# In short: as §1
# [23] = target: Gal(b1-4)GlcNAc(b1-6)GalNAc
# In short: as §1
# [24] = target: Gal(b1-4)GlcNAc(b1-6)[Gal(b1-3)]GalNAc
# In short: as §1
# [25] = target: Gal(b1-4)GlcNAc(b1-6)[Gal(b1-4)GlcNAc(b1-3)]GalNAc
# In short: as §1
# Gal(b1-4)GlcNAc6P = target: Gal(b1-4)GlcNAc6P
# In short: as §1
# Gal(b1-6)Gal = target: Gal(b1-6)Gal
# In short: as §1
# Gal3S(b1-3)GalNAc = target: Gal3S(b1-3)GalNAc
# In short: as §1
# Gal3S(b1-3)GlcNAc = target: Gal3S(b1-3)GlcNAc
# In short: as §1
# [26] = target: Gal3S(b1-3)[Fuc(a1-4)]GlcNAc
# In short: as §1
# Gal3S(b1-4)Glc = target: Gal3S(b1-4)Glc
# In short: as §1
# Gal3S(b1-4)Glc6S = target: Gal3S(b1-4)Glc6S
# In short: as §1
# Gal3S(b1-4)GlcNAc = target: Gal3S(b1-4)GlcNAc
# In short: as §1
# [27] = target: Gal3S(b1-4)[Fuc(a1-3)]Glc6S
# In short: as §1
# [28] = target: Gal3S(b1-4)[Fuc(a1-3)]GlcNAc
# In short: as §1
# [29] = target: Gal3S(b1-4)[Fuc(a1-3)]GlcNAc6S
# In short: as §1
# Gal3S4S(b1-4)GlcNAc = target: Gal3S4S(b1-4)GlcNAc
# In short: as §1
binder,measurement,setting,value
B1,glycan array binding signal (z-score),[1],-0.382
same,glycan array binding signal (z-score),[2],1.57
same,glycan array binding signal (z-score),[3],0.348
same,glycan array binding signal (z-score),[4],1.65
same,glycan array binding signal (z-score),[5],-0.332
same,glycan array binding signal (z-score),[6],0.985
same,glycan array binding signal (z-score),[7],0.195
same,glycan array binding signal (z-score),[8],0.259
same,glycan array binding signal (z-score),[9],0.578
same,glycan array binding signal (z-score),[10],0.744
same,glycan array binding signal (z-score),[11],0.35
same,glycan array binding signal (z-score),[12],2.95
same,glycan array binding signal (z-score),[13],0.402
same,glycan array binding signal (z-score),[14],-0.639
same,glycan array binding signal (z-score),[15],-0.268
same,glycan array binding signal (z-score),[16],-0.638
same,glycan array binding signal (z-score),[17],1.86
same,glycan array binding signal (z-score),[18],-0.238
same,glycan array binding signal (z-score),[19],-0.958
same,glycan array binding signal (z-score),[20],-0.075
same,glycan array binding signal (z-score),[21],-1.13
same,glycan array binding signal (z-score),[22],-0.586
same,glycan array binding signal (z-score),[23],0.97
same,glycan array binding signal (z-score),[24],-0.001
same,glycan array binding signal (z-score),[25],1.05
same,glycan array binding signal (z-score),Gal(b1-4)GlcNAc6P,0.296
same,glycan array binding signal (z-score),Gal(b1-6)Gal,0.182
same,glycan array binding signal (z-score),Gal3S(b1-3)GalNAc,-0.868
same,glycan array binding signal (z-score),Gal3S(b1-3)GlcNAc,0.28
same,glycan array binding signal (z-score),[26],0.065
same,glycan array binding signal (z-score),Gal3S(b1-4)Glc,0.315
same,glycan array binding signal (z-score),Gal3S(b1-4)Glc6S,0.787
same,glycan array binding signal (z-score),Gal3S(b1-4)GlcNAc,0.114
same,glycan array binding signal (z-score),[27],1.71
same,glycan array binding signal (z-score),[28],0.558
same,glycan array binding signal (z-score),[29],-0.111
same,glycan array binding signal (z-score),Gal3S4S(b1-4)GlcNAc,0.062

# In a second layout: entries from further up
binder | measurement | setting | value
B1 | glycan array binding signal (z-score) | Gal3S(b1-4)Glc | 0.315
same | glycan array binding signal (z-score) | Gal3S(b1-4)Glc6S | 0.787
